# PubChem BioAssay AID1053208 – Peter MacCallum Cancer Centre – 2014
# Purpose: 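Genes whose silencing cuts survival of bone tumour cells only with doxorubicin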 (primary screen)
# Cell system: mouse osteosarcoma cells, early-passage culture from an engineered mouse model of fibroblastic bone tumour
# Reagents: siRNA pool against mouse genes, 40 nM
# Duration: about 120 h (48 h before drug, then 72 h with drug)
# Treatment: doxorubicin 100 nM for 72 h, roughly 30-40% inhibitory dose
# Measurement: 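Luminescent ATP signal taken as viability with or without 100 nM doxorubicin for 72 h; mean of two wells set against non-targeting siRNA and turned into robust z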
# Direction: viability z-score with doxorubicin and doxorubicin viability vs non-targeting: higher = more viable cells under doxorubicin; viability z-score without drug: higher = more viable cells with knock-down alone; z-score of drug to no-drug ratio: higher = less drug sensitisation by knock-down
# Active means: 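Called active if knock-down leaves viability unchanged without drug (z within -2 to 2) but lowers it with doxorubicin (z at or under -2)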
# In all, the deposit lists about 17,000 reagents; below is a part drawn at random. In the full data, 788 (4.7%) got an active call. 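Calls rest on z-score classes alone; an extra cut-off of viability at most 70% of control was not applied to them.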
gene knocked down,combined z-score class,viability z-score with doxorubicin,viability z-score without drug,z-score of drug to no-drug ratio,doxorubicin viability vs non-targeting,outcome
"Cacna1g (calcium channel, voltage-dependent, T type, alpha 1G subunit)",no change with or without drug,-0.22,-0.17,0,0.92,inactive
Ifnar1 (interferon (alpha and beta) receptor 1),no change with or without drug,-0.45,-0.84,0.22,0.9,inactive
"Pde3a (phosphodiesterase 3A, cGMP inhibited)",no change with or without drug,1.24,-1.01,2.25,1.05,inactive
Nod1 (nucleotide-binding oligomerization domain containing 1),no change with or without drug,0.9,1.01,0.34,1.02,inactive
Adcyap1r1 (adenylate cyclase activating polypeptide 1 receptor 1),no change with or without drug,0.56,-0.67,1.24,0.99,inactive
Heph (hephaestin),no change with or without drug,0.45,1.18,-0.22,0.98,inactive
Nrdc (nardilysin convertase),no change with or without drug,0.22,-1.18,1.24,0.96,inactive
Arhgap15 (Rho GTPase activating protein 15),no change with or without drug,0.67,0.17,0.67,1,inactive
"Tubgcp4 (tubulin, gamma complex component 4)",low cell count with doxorubicin only,-2.14,-1.52,-1.24,0.75,active
Idh3b (isocitrate dehydrogenase 3 (NAD+) beta),low cell count with doxorubicin only,-2.25,-0.17,-2.14,0.74,active
Lrtm2 (leucine-rich repeats and transmembrane domains 2),high cell count without drug only,-0.11,2.53,-1.46,0.93,inactive
Nanp (N-acetylneuraminic acid phosphatase),no change with or without drug,0.22,-1.01,1.12,0.96,inactive
"Prkg1 (protein kinase, cGMP-dependent, type I)",no change with or without drug,1.57,-0.51,2.14,1.08,inactive
"Poli (polymerase (DNA directed), iota)",no change with or without drug,0.22,0,0.34,0.96,inactive
Fgf20 (fibroblast growth factor 20),no change with or without drug,-1.35,0.17,-1.46,0.82,inactive
Akap10 (A kinase anchor protein 10),no change with or without drug,-0.56,1.18,-1.24,0.89,inactive
"Cryba4 (crystallin, beta A4)",no change with or without drug,-1.57,-0.84,-1.01,0.8,inactive
Inhca (inhibitor of carbonic anhydrase),no change with or without drug,-1.01,-0.51,-0.67,0.85,inactive

The list goes on; the last 7 above are carried over.
gene knocked down,combined z-score class,viability z-score with doxorubicin,viability z-score without drug,z-score of drug to no-drug ratio,doxorubicin viability vs non-targeting,outcome
Nanp (N-acetylneuraminic acid phosphatase),no change with or without drug,0.22,-1.01,1.12,0.96,inactive
"Prkg1 (protein kinase, cGMP-dependent, type I)",no change with or without drug,1.57,-0.51,2.14,1.08,inactive
"Poli (polymerase (DNA directed), iota)",no change with or without drug,0.22,0,0.34,0.96,inactive
Fgf20 (fibroblast growth factor 20),no change with or without drug,-1.35,0.17,-1.46,0.82,inactive
Akap10 (A kinase anchor protein 10),no change with or without drug,-0.56,1.18,-1.24,0.89,inactive
"Cryba4 (crystallin, beta A4)",no change with or without drug,-1.57,-0.84,-1.01,0.8,inactive
Inhca (inhibitor of carbonic anhydrase),no change with or without drug,-1.01,-0.51,-0.67,0.85,inactive
Mnt (max binding protein),no change with or without drug,0.9,-0.51,1.46,1.02,inactive
Atxn3 (ataxin 3),no change with or without drug,-0.45,0.17,-0.45,0.9,inactive
Iqch (IQ motif containing H),no change with or without drug,-0.22,-0.34,0.11,0.92,inactive
Ces1f (carboxylesterase 1F),no change with or without drug,-0.67,-0.17,-0.45,0.88,inactive
Ak4 (adenylate kinase 4),no change with or without drug,0,-0.84,0.67,0.94,inactive
Prelp (proline arginine-rich end leucine-rich repeat),high cell count without drug only,1.35,2.19,0,1.06,inactive
Supt20 (SPT20 SAGA complex component),no change with or without drug,-0.9,-0.34,-0.67,0.86,inactive
Slc31a1,high without drug; low with doxorubicin,-2.7,2.19,-3.71,0.7,inactive
Kif24 (kinesin family member 24),no change with or without drug,-1.12,-0.17,-1.01,0.84,inactive
Mpzl3 (myelin protein zero-like 3),no change with or without drug,-0.45,0.84,-0.9,0.9,inactive
Acy1 (aminoacylase 1),low cell count with doxorubicin only,-2.47,0.67,-2.81,0.72,active
Trap1a (tumor rejection antigen P1A),no change with or without drug,0.45,0.84,0,0.98,inactive
Trem4 (triggering receptor expressed on myeloid cells 4),no change with or without drug,0.56,0.34,0.45,0.99,inactive
Pdlim3 (PDZ and LIM domain 3),no change with or without drug,-1.35,-1.01,-0.67,0.82,inactive
Svopl (SV2 related protein homolog (rat)-like),no change with or without drug,-1.57,0,-1.57,0.8,inactive
Casd1 (CAS1 domain containing 1),no change with or without drug,-0.45,-0.51,0,0.9,inactive
Trim17 (tripartite motif-containing 17),high cell count without drug only,0.9,2.19,-0.45,1.02,inactive
L3mbtl2 (L3MBTL2 polycomb repressive complex 1 subunit),no change with or without drug,-1.57,0.51,-1.8,0.8,inactive
Or52ae7 (olfactory receptor family 52 subfamily AE member 7),no change with or without drug,0,-1.18,1.01,0.94,inactive
Ubox5 (U box domain containing 5),no change with or without drug,-0.67,1.52,-1.46,0.88,inactive
Oaz3 (ornithine decarboxylase antizyme 3),no change with or without drug,1.35,0.34,1.24,1.06,inactive
Dcp1a (decapping mRNA 1A),no change with or without drug,0.22,0,0.34,0.96,inactive
Ppp4r3a (protein phosphatase 4 regulatory subunit 3A),no change with or without drug,0.22,1.69,-0.79,0.96,inactive
Tfpt (TCF3 (E2A) fusion partner),low cell count with doxorubicin only,-2.02,0.17,-2.14,0.76,active
Snx12 (sorting nexin 12),low cell count with doxorubicin only,-4.16,-0.84,-3.93,0.57,active
Plac8 (placenta-specific 8),no change with or without drug,0.56,0.51,0.34,0.99,inactive
Socs3 (suppressor of cytokine signaling 3),no change with or without drug,-0.45,0,-0.34,0.9,inactive
Dnaaf9 (dynein axonemal assembly factor 9),no change with or without drug,-1.12,1.18,-1.8,0.84,inactive
Zfp750 (zinc finger protein 750),no change with or without drug,0.67,1.18,0,1,inactive
Tmem121b (transmembrane protein 121B),no change with or without drug,-1.46,-1.18,-0.67,0.81,inactive
Kcnd3,no change with or without drug,1.01,1.52,0.11,1.03,inactive
Adam12 (ADAM metallopeptidase domain 12),high cell count without drug only,0.45,2.36,-0.9,0.98,inactive
